This is one part of the list.
Experiments:
Experiment in all cases: glycan array binding signal (z-score within array); higher = stronger binding
Details in all cases: glycan notation: IUPAC condensed, linker removed
Fuc(a1-2)Gal = target: Fuc(a1-2)Gal
How it was run: (§1)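 The binding signal is a Z-score computed within each array. Data were drawn from 3228 arrays in the Consortium for Functional Glycomics database, restricted to those with a known protein sequence. Scores were averaged over arrays of the same protein sequence at different concentrations or buffers, and over linkers, and negative values can be taken as non-binding.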

Fuc(a1-2)Gal(b1-3)GalNAc = target: Fuc(a1-2)Gal(b1-3)GalNAc
How it was run: as §1

[1] = target: Fuc(a1-2)Gal(b1-3)GalNAc(b1-3)Gal
How it was run: as §1

[2] = target: Fuc(a1-2)Gal(b1-3)GalNAc(b1-3)Gal(a1-4)Gal(b1-4)Glc
How it was run: as §1

[3] = target: Fuc(a1-2)Gal(b1-3)GalNAc(b1-4)[Neu5Ac(a2-3)]Gal(b1-4)Glc
How it was run: as §1

Fuc(a1-2)Gal(b1-3)GlcNAc = target: Fuc(a1-2)Gal(b1-3)GlcNAc
How it was run: as §1

[4] = target: Fuc(a1-2)Gal(b1-3)GlcNAc(b1-2)Man(a1-3)[Fuc(a1-2)Gal(b1-3)GlcNAc(b1-2)Man(a1-6)]Man(b1-4)GlcNAc(b1-4)GlcNAc
How it was run: as §1

[5] = target: Fuc(a1-2)Gal(b1-3)GlcNAc(b1-3)Gal(b1-4)Glc
How it was run: as §1

[6] = target: Fuc(a1-2)Gal(b1-3)GlcNAc(b1-3)[Gal(b1-4)[Fuc(a1-3)]GlcNAc(b1-6)]Gal(b1-4)Glc
How it was run: as §1

[7] = target: Fuc(a1-2)Gal(b1-3)[Fuc(a1-4)]GlcNAc
How it was run: as §1

[8] = target: Fuc(a1-2)Gal(b1-3)[Fuc(a1-4)]GlcNAc(b1-2)Man(a1-3)[Fuc(a1-2)Gal(b1-3)[Fuc(a1-4)]GlcNAc(b1-2)Man(a1-6)]Man(b1-4)GlcNAc(b1-4)GlcNAc
How it was run: as §1

Fuc(a1-2)Gal(b1-4)Glc = target: Fuc(a1-2)Gal(b1-4)Glc
How it was run: as §1

Fuc(a1-2)Gal(b1-4)Glc6S = target: Fuc(a1-2)Gal(b1-4)Glc6S
How it was run: as §1

Fuc(a1-2)Gal(b1-4)GlcNAc = target: Fuc(a1-2)Gal(b1-4)GlcNAc
How it was run: as §1

[9] = target: Fuc(a1-2)Gal(b1-4)GlcNAc(b1-2)Man(a1-3)[Fuc(a1-2)Gal(b1-4)GlcNAc(b1-2)Man(a1-6)]Man(b1-4)GlcNAc(b1-4)GlcNAc
How it was run: as §1

[10] = target: Fuc(a1-2)Gal(b1-4)GlcNAc(b1-3)Gal(b1-4)GlcNAc
How it was run: as §1

[11] = target: Fuc(a1-2)Gal(b1-4)GlcNAc(b1-3)Gal(b1-4)GlcNAc(b1-3)Gal(b1-4)GlcNAc
How it was run: as §1

[12] = target: Fuc(a1-2)Gal(b1-4)GlcNAc6S
How it was run: as §1

[13] = target: Fuc(a1-2)Gal(b1-4)[Fuc(a1-3)]GlcNAc
How it was run: as §1

[14] = target: Fuc(a1-2)Gal(b1-4)[Fuc(a1-3)]GlcNAc(b1-2)Man(a1-3)[Fuc(a1-2)Gal(b1-4)[Fuc(a1-3)]GlcNAc(b1-2)Man(a1-6)]Man(b1-4)GlcNAc(b1-4)GlcNAc
How it was run: as §1

[15] = target: Fuc(a1-2)Gal(b1-4)[Fuc(a1-3)]GlcNAc(b1-3)Gal(b1-4)[Fuc(a1-3)]GlcNAc
How it was run: as §1

[16] = target: Fuc(a1-2)Gal(b1-4)[Fuc(a1-3)]GlcNAc(b1-3)Gal(b1-4)[Fuc(a1-3)]GlcNAc(b1-3)Gal(b1-4)[Fuc(a1-3)]GlcNAc
How it was run: as §1

Fuc(a1-2)Gal6S(b1-4)Glc = target: Fuc(a1-2)Gal6S(b1-4)Glc
How it was run: as §1

[17] = target: Fuc(a1-2)Gal6S(b1-4)Glc6S
How it was run: as §1

[18] = target: Fuc(a1-2)Gal6S(b1-4)GlcNAc
How it was run: as §1

Fuc(a1-2)[Gal(a1-3)]Gal = target: Fuc(a1-2)[Gal(a1-3)]Gal
How it was run: as §1

[19] = target: Fuc(a1-2)[Gal(a1-3)]Gal(b1-3)GlcNAc
How it was run: as §1

[20] = target: Fuc(a1-2)[Gal(a1-3)]Gal(b1-3)GlcNAc(b1-2)Man(a1-3)[Fuc(a1-2)[Gal(a1-3)]Gal(b1-3)GlcNAc(b1-2)Man(a1-6)]Man(b1-4)GlcNAc(b1-4)GlcNAc
How it was run: as §1

[21] = target: Fuc(a1-2)[Gal(a1-3)]Gal(b1-4)Glc
How it was run: as §1

[22] = target: Fuc(a1-2)[Gal(a1-3)]Gal(b1-4)GlcNAc
How it was run: as §1

[23] = target: Fuc(a1-2)[Gal(a1-3)]Gal(b1-4)GlcNAc(b1-2)Man(a1-3)[Fuc(a1-2)[Gal(a1-3)]Gal(b1-4)GlcNAc(b1-2)Man(a1-6)]Man(b1-4)GlcNAc(b1-4)GlcNAc
How it was run: as §1

[24] = target: Fuc(a1-2)[Gal(a1-3)]Gal(b1-4)[Fuc(a1-3)]GlcNAc
How it was run: as §1

[25] = target: Fuc(a1-2)[Gal(a1-4)]Gal(b1-4)GlcNAc
How it was run: as §1

[26] = target: Fuc(a1-2)[GalNAc(a1-3)]Gal
How it was run: as §1

[27] = target: Fuc(a1-2)[GalNAc(a1-3)]Gal(b1-3)GlcNAc
How it was run: as §1

[28] = target: Fuc(a1-2)[GalNAc(a1-3)]Gal(b1-3)GlcNAc(b1-2)Man(a1-3)[Fuc(a1-2)[GalNAc(a1-3)]Gal(b1-3)GlcNAc(b1-2)Man(a1-6)]Man(b1-4)GlcNAc(b1-4)GlcNAc
How it was run: as §1

[29] = target: Fuc(a1-2)[GalNAc(a1-3)]Gal(b1-4)Glc
How it was run: as §1

B1: Adiponectin (Rattus norvegicus), Q8K3R4 (protein)
chain: MLLLQALLFLLILPSHEGITATEGPGALVPPPKETCAGWMAGIPGYPGHNGIPGRDGRDGTPGEKGEKGDAGVLGPKGDPGDAGMTGAEGPRGFPGTPGRKGEPGEAAYMYHSAFSVGLETRVTVPNVPIRFTKIFYNQQNHYDGSTGKFHCNIPGLYYFSYHITVYMKDVKVSLFKKDKAVLFTYDQYQEKNVDQASGSMLLHLEVGDQVWLQVYGEGDNNGLYADNVNDSTFTGFLLYHDTN
For B1, which “glycan array binding signal (z-score)” value (Fuc(a1-2)Gal) is on record?
Its value is 0.398.

What about the “glycan array binding signal (z-score)” value (Fuc(a1-2)Gal(b1-3)GalNAc) of the same binder?
The value was -0.147.

And the “glycan array binding signal (z-score)” value [1]?
Its value is -0.397.

What about the “glycan array binding signal (z-score)” value [2] of the same binder?
The value was -0.73.

And the “glycan array binding signal (z-score)” value [3]?
Its value is 0.079.

And the “glycan array binding signal (z-score)” value (Fuc(a1-2)Gal(b1-3)GlcNAc)?
Its value is -0.496.

And the “glycan array binding signal (z-score)” value [4]?
The value was 4.69.

What about the “glycan array binding signal (z-score)” value [5] of the same binder?
Its value is 0.452.

What about the “glycan array binding signal (z-score)” value [6] of the same binder?
The value was -0.377.

What about the “glycan array binding signal (z-score)” value [7] of the same binder?
Its value is -0.923.

And the “glycan array binding signal (z-score)” value [8]?
Its value is 2.87.

What about the “glycan array binding signal (z-score)” value (Fuc(a1-2)Gal(b1-4)Glc) of the same binder?
Its value is -0.025.

What about the “glycan array binding signal (z-score)” value (Fuc(a1-2)Gal(b1-4)Glc6S) of the same binder?
The value was -0.631.

What about the “glycan array binding signal (z-score)” value (Fuc(a1-2)Gal(b1-4)GlcNAc) of the same binder?
Its value is -0.228.

What about the “glycan array binding signal (z-score)” value [9] of the same binder?
The value was 0.313.

What about the “glycan array binding signal (z-score)” value [10] of the same binder?
Its value is 0.416.

And the “glycan array binding signal (z-score)” value [11]?
Its value is 0.826.

And the “glycan array binding signal (z-score)” value [12]?
The value was -0.856.

And the “glycan array binding signal (z-score)” value [13]?
Its value is -0.719.

And the “glycan array binding signal (z-score)” value [14]?
Its value is -0.353.

What about the “glycan array binding signal (z-score)” value [15] of the same binder?
The value was -0.291.

And the “glycan array binding signal (z-score)” value [16]?
Its value is -0.166.

And the “glycan array binding signal (z-score)” value (Fuc(a1-2)Gal6S(b1-4)Glc)?
Its value is 0.016.

And the “glycan array binding signal (z-score)” value [17]?
Its value is -0.367.

What about the “glycan array binding signal (z-score)” value [18] of the same binder?
Its value is -0.878.

What about the “glycan array binding signal (z-score)” value (Fuc(a1-2)[Gal(a1-3)]Gal) of the same binder?
Its value is 0.045.

And the “glycan array binding signal (z-score)” value [19]?
Its value is -0.577.

And the “glycan array binding signal (z-score)” value [20]?
Its value is 0.424.

What about the “glycan array binding signal (z-score)” value [21] of the same binder?
Its value is 0.274.

What about the “glycan array binding signal (z-score)” value [22] of the same binder?
Its value is -0.879.

What about the “glycan array binding signal (z-score)” value [23] of the same binder?
The value was -0.975.

And the “glycan array binding signal (z-score)” value [24]?
The value was 2.15.

What about the “glycan array binding signal (z-score)” value [25] of the same binder?
The value was -0.75.

What about the “glycan array binding signal (z-score)” value [26] of the same binder?
Its value is 0.237.

What about the “glycan array binding signal (z-score)” value [27] of the same binder?
The value was -0.662.

And the “glycan array binding signal (z-score)” value [28]?
Its value is 0.772.

What about the “glycan array binding signal (z-score)” value [29] of the same binder?
Its value is -0.55.

Source: the supplement of paper PMC8728848
